This experiment addresses GS::RPM-1 (C. elegans) (UniProt Q17551). Briefly: affinity purification with mass spectrometry; GS-tagged RPM-1 bait captured on IgG-coupled Dynabeads from whole-animal lysates of mixed-stage C. elegans (80 mg total protein, 500 uL beads, 4°C, 4 hours; various detergent conditions); SDS-PAGE, in-gel trypsin digest, LC-MS/MS; GS::GFP negative control; 7 independent experiments; hit = 1.5x or greater total spectra over GS::GFP.

Protein sequences, listed by entry. Tags and fused reporters are not part of them.
UniProt Q17551: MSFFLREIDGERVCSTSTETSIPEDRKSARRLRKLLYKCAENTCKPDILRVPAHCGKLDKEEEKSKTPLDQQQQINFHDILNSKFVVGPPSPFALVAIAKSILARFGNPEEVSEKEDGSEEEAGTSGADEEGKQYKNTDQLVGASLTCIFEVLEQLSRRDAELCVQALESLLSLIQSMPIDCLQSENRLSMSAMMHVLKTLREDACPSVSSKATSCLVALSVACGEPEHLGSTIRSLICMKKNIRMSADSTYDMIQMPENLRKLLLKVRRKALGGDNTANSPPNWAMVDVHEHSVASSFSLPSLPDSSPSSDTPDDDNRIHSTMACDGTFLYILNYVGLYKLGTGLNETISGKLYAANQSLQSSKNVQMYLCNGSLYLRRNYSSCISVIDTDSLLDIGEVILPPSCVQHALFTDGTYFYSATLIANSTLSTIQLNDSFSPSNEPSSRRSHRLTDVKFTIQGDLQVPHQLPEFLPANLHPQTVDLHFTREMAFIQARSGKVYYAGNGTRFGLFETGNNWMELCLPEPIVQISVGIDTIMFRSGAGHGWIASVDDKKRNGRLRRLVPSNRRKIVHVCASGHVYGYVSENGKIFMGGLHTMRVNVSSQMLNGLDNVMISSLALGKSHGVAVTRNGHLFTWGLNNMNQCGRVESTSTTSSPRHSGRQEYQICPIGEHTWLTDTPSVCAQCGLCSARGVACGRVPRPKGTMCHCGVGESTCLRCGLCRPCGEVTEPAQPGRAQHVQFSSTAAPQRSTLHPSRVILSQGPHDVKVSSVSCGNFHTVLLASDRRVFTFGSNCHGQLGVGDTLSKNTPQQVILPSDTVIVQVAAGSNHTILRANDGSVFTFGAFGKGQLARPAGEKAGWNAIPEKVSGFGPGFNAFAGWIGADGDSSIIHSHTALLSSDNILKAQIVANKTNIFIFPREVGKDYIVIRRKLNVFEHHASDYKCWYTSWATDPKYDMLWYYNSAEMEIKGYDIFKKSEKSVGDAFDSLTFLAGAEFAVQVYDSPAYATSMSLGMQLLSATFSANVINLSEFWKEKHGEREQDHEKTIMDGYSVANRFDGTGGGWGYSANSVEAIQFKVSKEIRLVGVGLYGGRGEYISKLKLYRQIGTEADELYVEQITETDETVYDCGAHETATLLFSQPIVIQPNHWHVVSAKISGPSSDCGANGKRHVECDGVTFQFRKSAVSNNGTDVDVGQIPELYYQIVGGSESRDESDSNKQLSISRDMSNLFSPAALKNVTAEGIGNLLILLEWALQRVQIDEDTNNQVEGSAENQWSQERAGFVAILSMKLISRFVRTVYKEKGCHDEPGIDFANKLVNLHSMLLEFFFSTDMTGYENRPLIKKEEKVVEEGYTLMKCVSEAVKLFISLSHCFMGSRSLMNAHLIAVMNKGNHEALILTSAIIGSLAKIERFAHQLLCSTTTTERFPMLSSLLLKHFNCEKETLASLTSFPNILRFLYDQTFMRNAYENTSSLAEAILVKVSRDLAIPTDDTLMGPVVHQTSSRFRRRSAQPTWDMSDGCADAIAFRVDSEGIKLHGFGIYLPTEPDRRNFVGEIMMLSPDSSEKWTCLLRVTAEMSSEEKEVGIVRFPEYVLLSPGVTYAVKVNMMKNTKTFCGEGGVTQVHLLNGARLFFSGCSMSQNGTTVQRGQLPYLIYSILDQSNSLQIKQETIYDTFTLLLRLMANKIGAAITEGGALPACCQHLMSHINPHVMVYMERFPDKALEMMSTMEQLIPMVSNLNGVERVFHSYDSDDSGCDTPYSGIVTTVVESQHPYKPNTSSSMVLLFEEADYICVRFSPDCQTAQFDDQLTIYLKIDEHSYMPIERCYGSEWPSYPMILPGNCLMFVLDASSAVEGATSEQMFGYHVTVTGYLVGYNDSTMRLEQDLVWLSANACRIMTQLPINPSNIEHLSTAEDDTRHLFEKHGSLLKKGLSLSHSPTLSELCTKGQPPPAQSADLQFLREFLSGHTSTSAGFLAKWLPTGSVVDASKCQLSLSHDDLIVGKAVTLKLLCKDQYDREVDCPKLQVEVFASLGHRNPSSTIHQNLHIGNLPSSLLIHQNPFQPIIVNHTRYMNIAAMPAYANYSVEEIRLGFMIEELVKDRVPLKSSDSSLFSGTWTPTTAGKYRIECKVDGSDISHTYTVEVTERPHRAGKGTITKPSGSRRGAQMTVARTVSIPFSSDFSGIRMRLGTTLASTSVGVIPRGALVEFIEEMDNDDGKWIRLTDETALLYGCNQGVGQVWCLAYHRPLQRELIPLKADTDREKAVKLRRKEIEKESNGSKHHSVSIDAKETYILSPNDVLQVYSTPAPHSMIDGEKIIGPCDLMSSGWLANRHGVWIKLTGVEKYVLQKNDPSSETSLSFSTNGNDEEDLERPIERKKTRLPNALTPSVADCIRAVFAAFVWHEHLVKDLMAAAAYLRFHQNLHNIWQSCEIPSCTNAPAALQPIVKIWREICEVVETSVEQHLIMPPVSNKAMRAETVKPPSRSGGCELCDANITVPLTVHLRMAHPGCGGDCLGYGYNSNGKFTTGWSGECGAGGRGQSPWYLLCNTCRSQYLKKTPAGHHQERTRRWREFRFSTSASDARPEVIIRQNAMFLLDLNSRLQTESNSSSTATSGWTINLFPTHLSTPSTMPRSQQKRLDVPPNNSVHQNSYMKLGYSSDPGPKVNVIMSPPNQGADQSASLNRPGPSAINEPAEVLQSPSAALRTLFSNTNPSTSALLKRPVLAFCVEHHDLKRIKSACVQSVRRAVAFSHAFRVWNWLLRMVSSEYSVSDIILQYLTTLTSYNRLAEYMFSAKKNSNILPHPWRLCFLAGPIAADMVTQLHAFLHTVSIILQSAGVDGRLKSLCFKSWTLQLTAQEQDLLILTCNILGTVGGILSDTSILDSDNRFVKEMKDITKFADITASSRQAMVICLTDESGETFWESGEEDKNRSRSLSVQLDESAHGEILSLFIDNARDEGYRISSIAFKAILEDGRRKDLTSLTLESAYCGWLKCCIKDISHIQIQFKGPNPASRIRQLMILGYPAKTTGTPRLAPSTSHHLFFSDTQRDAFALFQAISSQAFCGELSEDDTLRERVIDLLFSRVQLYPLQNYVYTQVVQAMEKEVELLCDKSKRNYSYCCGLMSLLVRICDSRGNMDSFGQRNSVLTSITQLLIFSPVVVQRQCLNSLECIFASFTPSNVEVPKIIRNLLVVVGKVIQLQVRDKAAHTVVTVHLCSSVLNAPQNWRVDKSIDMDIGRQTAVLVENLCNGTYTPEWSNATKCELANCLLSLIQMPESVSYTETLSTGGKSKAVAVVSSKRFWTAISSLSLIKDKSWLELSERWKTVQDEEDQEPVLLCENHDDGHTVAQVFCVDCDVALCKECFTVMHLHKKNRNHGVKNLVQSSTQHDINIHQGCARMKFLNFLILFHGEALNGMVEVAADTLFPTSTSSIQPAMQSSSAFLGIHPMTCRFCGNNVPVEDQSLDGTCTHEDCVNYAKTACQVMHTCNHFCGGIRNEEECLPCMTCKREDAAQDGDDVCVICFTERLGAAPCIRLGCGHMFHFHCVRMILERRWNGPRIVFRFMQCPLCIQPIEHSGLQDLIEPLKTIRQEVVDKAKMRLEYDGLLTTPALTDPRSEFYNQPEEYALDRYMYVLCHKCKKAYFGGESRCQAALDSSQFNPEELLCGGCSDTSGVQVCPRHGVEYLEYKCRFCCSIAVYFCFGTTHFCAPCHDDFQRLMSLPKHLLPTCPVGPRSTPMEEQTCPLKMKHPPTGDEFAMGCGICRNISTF
UniProt P90980: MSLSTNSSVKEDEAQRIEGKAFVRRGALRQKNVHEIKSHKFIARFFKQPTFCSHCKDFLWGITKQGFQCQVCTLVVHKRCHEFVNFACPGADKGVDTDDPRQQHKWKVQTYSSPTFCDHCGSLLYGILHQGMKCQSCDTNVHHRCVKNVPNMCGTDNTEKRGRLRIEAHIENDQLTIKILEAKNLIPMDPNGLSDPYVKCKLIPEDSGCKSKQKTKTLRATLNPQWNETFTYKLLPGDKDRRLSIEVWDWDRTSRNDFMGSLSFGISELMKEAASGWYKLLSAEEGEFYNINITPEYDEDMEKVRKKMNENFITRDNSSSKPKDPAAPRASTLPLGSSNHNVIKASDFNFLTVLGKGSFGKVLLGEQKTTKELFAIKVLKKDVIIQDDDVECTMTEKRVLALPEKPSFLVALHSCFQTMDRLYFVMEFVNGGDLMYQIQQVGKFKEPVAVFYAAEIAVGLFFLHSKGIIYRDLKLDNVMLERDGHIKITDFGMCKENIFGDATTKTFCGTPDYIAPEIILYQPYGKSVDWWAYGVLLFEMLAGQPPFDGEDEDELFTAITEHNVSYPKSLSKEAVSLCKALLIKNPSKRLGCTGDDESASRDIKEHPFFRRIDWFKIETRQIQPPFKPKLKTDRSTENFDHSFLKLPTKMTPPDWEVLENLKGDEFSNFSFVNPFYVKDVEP
UniProt G5EGK8: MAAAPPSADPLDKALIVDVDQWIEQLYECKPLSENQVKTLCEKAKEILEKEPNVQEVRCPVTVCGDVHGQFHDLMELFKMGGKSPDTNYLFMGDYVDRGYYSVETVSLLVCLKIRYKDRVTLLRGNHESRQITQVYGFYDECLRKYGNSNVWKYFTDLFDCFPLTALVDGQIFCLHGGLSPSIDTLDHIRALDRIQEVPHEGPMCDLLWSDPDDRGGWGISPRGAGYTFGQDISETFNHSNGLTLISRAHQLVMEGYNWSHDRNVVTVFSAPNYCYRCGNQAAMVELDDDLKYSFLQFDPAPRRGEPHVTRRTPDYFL
UniProt P91910: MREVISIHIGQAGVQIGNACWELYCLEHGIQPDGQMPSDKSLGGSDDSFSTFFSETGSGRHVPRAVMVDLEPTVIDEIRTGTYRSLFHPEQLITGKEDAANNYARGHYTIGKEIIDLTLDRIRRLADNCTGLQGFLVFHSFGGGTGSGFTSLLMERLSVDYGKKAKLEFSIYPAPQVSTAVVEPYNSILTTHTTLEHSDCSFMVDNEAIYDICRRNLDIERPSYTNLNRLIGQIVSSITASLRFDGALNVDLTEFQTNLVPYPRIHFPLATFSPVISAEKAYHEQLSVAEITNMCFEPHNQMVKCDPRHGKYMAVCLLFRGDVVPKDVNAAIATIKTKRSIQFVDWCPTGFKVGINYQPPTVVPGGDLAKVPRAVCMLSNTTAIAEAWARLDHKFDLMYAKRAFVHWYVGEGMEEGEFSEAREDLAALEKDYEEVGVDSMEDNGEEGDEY
UniProt Q21215: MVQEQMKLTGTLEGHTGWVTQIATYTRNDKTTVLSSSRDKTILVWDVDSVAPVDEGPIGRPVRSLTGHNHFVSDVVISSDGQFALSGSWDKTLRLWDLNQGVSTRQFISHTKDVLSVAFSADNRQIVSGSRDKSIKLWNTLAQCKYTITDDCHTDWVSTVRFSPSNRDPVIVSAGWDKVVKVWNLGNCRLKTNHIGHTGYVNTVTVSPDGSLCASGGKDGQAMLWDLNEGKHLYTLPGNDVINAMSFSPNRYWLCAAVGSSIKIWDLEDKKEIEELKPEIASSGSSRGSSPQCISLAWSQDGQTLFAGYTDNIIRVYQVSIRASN
UniProt Q22038: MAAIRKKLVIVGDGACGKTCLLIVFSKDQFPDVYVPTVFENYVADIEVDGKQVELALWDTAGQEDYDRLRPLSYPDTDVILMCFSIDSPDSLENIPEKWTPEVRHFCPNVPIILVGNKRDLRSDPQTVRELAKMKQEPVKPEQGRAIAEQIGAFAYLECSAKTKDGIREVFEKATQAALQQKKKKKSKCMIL

These are yes or no findings as the source states them, for the method shown. In cells and extracts the contact can be indirect. These calls come from enrichment with a bait or labelling near it, and not all partners need be listed.

Data on 14 molecules can be found in paper PMC11642917.

For CED-10 (from UniProt Q03206 1-191), the binding entry is on record as “binds”. Consider PKC-2 (from UniProt P90980 1-682), for which the binding entry is reported as “binds”. Next, LET-92 (from UniProt G5EGK8 1-318): “binds”. As to MEC-12 (from UniProt P91910 1-450), the binding result is on record as “binds”. As to RACK-1 (from UniProt Q21215 1-325), the binding entry was “binds”. The entry for RHO-1 (from UniProt Q22038 1-192) is “binds”.

B1: PAB-1 (protein, UniProt Q9U302 1-646)
chain: MEMNVAAPAAAVAGAAAPQPGQNQTGSSYTMASLYVGDLHPDVNESILFEKFSAAGPVLSIRVCRDNATRLSLGYAYVNFQQPADAERAMDTMNFEALHGKPMRIMWSQRDPAMRRSGAGNIFIKNLDKVIDNKSIYDTFSLFGNILSCKVAIDEDGFSKGYGFVHFETEEAAQNAIQKVNGMLLAGKKVFVGKFQPRAQRNRELGETAKQFTNVYVKNFGDHYNKETLEKLFAKFGNITSCEVMTVEGKSKGFGFVAFANPEEAETAVQALHDSTIEGTDLKLHVCRAQKKSERHAELKKKHEQHKAERMQKYQGVNLYVKNLDETVDDDGLKKQFESYGNITSAKVMTDENGRSKGFGFVCFEKPEEATSAVTEMNSKMVCSKPLYVAIAQRKEDRRAQLASQYMQRLASMRMHGNVPGAAMYNPTQPGPGYYVANPMQQQRNFAGGQQMVRPGGRWGMQNQYPVQNQYMMAQGPGVYQNRMGRPQNQQGGPRGPPQQYNQVAQGGVRMQGPPRTQNPGVQQQNVPRPPQQQQQQRPAPTGPKAPPQPYQAYQQRPQGIVIGGQEPLTSAMLAAAAPQEQKQLLGERIYALIEKLYPGHKDAGKITGMMLEIDNSELIMMLQDSELFRSKVDEAASVLVSAQKQ
Consider B1, for which the binding result is given as “binds”.

B2: PAT-6 (protein, UniProt O16785 1-375)
chain: MSTLGRSKTPSRDEPKKPGVFEKLSGTLSRKKKAPEDEHGNQGGAHHATDEDEVLELELEGREALDQSLVPVLARNIWLEEGEIRRYLTKETARDQKLAQVVDLLIYWLNEELADQRIVVRHLQEDLFDGQIIQKLLEKLEQIRIEVPEVSQSEEGQRQKLQIVVQTANRILGQPREQEKWSADLIHQKDFTAIIQLLVLLALHYRAPVRFPDNVVANVVVAQKEHGQVKTHRITEQITTVQTELAPKGTRDAFDTLFDYGPDKLAHVKTSLLAFCNKHLNKINLEVSDLDNQFQDGVFLVLLVGLLEGYFVPLYHFNLQVQSHEEKVKNVQFAFKLMEDTGLEKPRSRVQDIANGDVKSTLRLLHLLFTKYKHI
In the case of B2, the binding entry is “binds”.

B3: CAV-1 (protein, UniProt Q94051 1-235)
chain: MSTEQDIKTEEQIPLTYAAVAAPTVQTEGEAVVAPEEPKPKKNWFTFGKKKAAPTDETNIEEGGAPGDEPVKEKKEKKCWWSRCQKGEGEQKEENIAIGVDLVNRDANSMNNHVQLNFEDIFGEADSQHSWDCVWRLNHTVFTAVRLFIYRLVSLLALPFTIIFAIFFGLLASINVFIIVPLGKLLSIPGTLLAKLWNWLIHAIFDPIASAVGLIFSNFNIRKYGINQETTAPCV
Regarding B3, the binding entry is reported as “binds”.

B4: DEB-1 (protein, UniProt P19826 1-1090)
chain: MPVFHTKTIENILEPVAQQLHYVLAMAEKNATSVDEVRHLGTSMPNLDRFASRSALALSRASSRRSIPEYITPDTVRHVVNDDDCPVCQLMMPRGKDGCVSRLVILHEEANDGNAMPDLTGPVGMVSRAVGNLIQVGYDTCDHSDDRILQQDMPPALQRVEGSSKLLEESSYSLKHDPYSVPARKKLIDGARGILQGTSALLLCFDESEVRKIIRVCRKANDYVAVSEVIESMADLQQFVKDISPVLHDVTNDVNLRQQELTHQVHREILIRCMDSIKVIAPILICSMKTSIELGTPHPRQGHAEAIANRNFMSQRMTEEMNEIIRVLQLTTYDEDEWDADNVTVMRKALSAAKSLLTAALDWLADPHARSGAVGEKAIRRICEYADRISARALPEDAQSIKRSIFEITSFTDELCNLRNNGQPDRENLAAQTARRLKDLVGSQNSSGLMGDALQNAQRHGGANPAHTAAGRLEQALRWLDNPGLDDGGLGLQALRLLTADARKLADRLNPQDRNRLLGLCSDIDRLAAQLADLERRGLGNSPEAHQIRNQLKNALRDLGDFMRRVLTDRVVDDFADITTPLKQFVEAVHADPYDPNREQNFVDKSQRLTDHSQSMTTTARLVASCGPSKSKKTVEAILDTAEKVEQLTPQLVNAGRVRLHNPGSEQHFENIHKQYADALHRLRSHVDDAIDTGEFVRASETAMRRYTNHCEGAINGADAHGLVNNSSQIARLGNRVLMTAQNEADNSEEPSFVSRVRNAADQLHNAIPPMVNNAKQIAQNPHDQYAAQNWRGTNDHLLNSVRAVGDAITGVPMSNGRHSSYQESISRASPYNPPPPSSQVIRSVNASPPTAPIIHNKMIIREDIPAPPRPPPPVELSPPPRPPPPPEYDEEEETRAFWERYPLPQASHQPMLAAAHNLHNELKQWSSQENDIVAAAKRMAILMARLSQLVRGEGGTKKDLINCSKAIADSSEEVTRLAVQLARLCTDIKMRTALLQVSERIPTIATQLKVLSTVKATMLGSANVIGPYGQPVEGSEEDDEAMQQLVHNAQNLMQSVKDVVRAAEAASIKIRTNSGLRLRWLRKPMWSNF
On to B4, for which the binding entry was “binds”.

B5: PAT-2 (protein, UniProt P34446 26-1226)
chain: FNIDTKNVVVHHMAGNYFGYSLDFYHEQKGMPVLVVGAPEAESNNPNLAGIRRPGAVYACSVNRATCREVHVDKMKGNLKKLNGSHLVPIEEKSHQFFGATVRSNDKHDKIVVCAPKYTYFYSKFEVIEPVGTCFYAENGFDNAEEFSSCKQEPARHGRHRLGYGQCGFSAAVPGKKNQNRVFIGAPGVWYWQGAMFSQNIKNQTDRPNTEYGSKEYDHDMMGYSTATGDFDGDGIDDIVAGVPRGNDLHGKLVLYTSKLKMMINLTDEVSTQHGQYCGGSVAVADVNKDGRDDIIMGCPFYTDYGSVKDAKTQERKPQYDVGKVIVMLQTAPGVFGKQIAVVGDDQWGRFGHAVAAAGDLNLDGYNDVIVGAPYAGKNKQGAVYVIHGSKDGVRELPTQKIEGANIGHGNIKSFGFSLTGNEDVDGNGMPDIAVGAWKSGNAAVLLTKPVVTVTGQTEPESALISVEDKNCDVDGKLGKQACKHINTCFKYEGKGDTPNDLEFDLRFNLDDHSPEPRAYFLQKDVKSDRSIKVAQGSKTRDHPSSIEQRVRLEKGRQKCFRHRFFASSTMKDKLSPIHWSVNYTYVESKTGKLRGDKLEPAIDTTVPLSFQNKINIANNCGKDDLCVPDLKVTAVADREKFLLGTQDNTMLINVTVQNGGEDSYETKLYFDVPQGFEYGGIESVGGDGSKSAPACSPTSDEPDSDGKWTFACDLGNPLPANKVVSSVVRVTASSDKPPLAPISINAHVNSSNDEEAHTVADNKVTFTIPVDFKNQLSLNGRSNPEQVDFSMTNKTRVDAFDDNEIGPVVSHLYQISNRGPSEVDSATLDIFWPSFSTEGGHLLYIITEPVVNPPNKGRCRVKQLQNVNPLNLRITNEHVPTEPPVAKTPNEYSREEDDESYEDETTTQSQSTRHQSTQHQTHHQSGPVHVYEKDEEKIRQNTGNWQYVEDKKKKGDYEYIPDDQEYDGDDFEEEDDEDFDRAGSKRVKRNPTPKKKKKGGEHRGEPRSDKARFSDLREAVKLSKEAGGVVDYKGPLSRASVDCNSLRCTHIECDIYDLKEDEFVLVEIFSRLYTNTLVDEKNPGGDISSLALARVTSTKYNLPHKPTLITAVSTNMNAIASEEGRDLPWWLYLLAILIGLAILILLILLLWRCGFFKRNRPPTEHAELRADRQPNAQYADSQSRYTSQDQYNQGRHGQML
For the molecule B5, the binding entry is on record as “binds”.

B6: PAT-4 (protein, UniProt Q9TZC4 1-466)
chain: MSLSTHYHAHKPNVPIIMEDVFGWVREGNAFQVRVWLDDHEHDLNVGDDHAFSLLHWAAKGGHVAIAEMLLSRGARVNSTNMGDDTSLHLAAAHGHRQIVVKLLSRKADVNATNEHGMTPLHYACFWGYEQIAEDLISCGAAVNVCNKKGMTPLDVCQPMCKNTILEIAQEHGQSPNDRVPFKDTTWKGTKSRTRDATLSRYTGVDVSSLNLITKIAESHSGELWRGKWQGNDIVARILNVQEVTARISRDFQTEFPALRIFAHPNICAVLAAANQPPNLVIISQYMPFGSLYNVLHEQSSVVIDHGQAVRFALDIARGMSYLHSLDPMLLRFYLSSKHVVVDEELTAKLSMADTKFSFQEVGKAYSPAWMSPEALSRAPEDLNIRAADMWSFAILLWELNTREVPFSDLPPMECGMKIALEGLRVHIPPGIARNMNRLMNICMNEDPGRRPNFDQIIPILERMIL
Turning to B6, the binding entry is “binds”.

B7: CRT-1 (protein, UniProt P27798 16-395)
chain: EVYFKEEFNDASWEKRWVQSKHKDDFGAFKLSAGKFFDVESRDQGIQTSQDAKFYSRAAKFDKDFSNKGKTLVIQYTVKHEQGIDCGGGYVKVMRADADLGDFHGETPYNVMFGPDICGPTRRVHVILNYKGENKLIKKEITCKSDELTHLYTLILNSDNTYEVKIDGESAQTGSLEEDWDLLPAKKIKDPDAKKPEDWDEREYIDDAEDAKPEDWEKPEHIPDPDAKKPEDWDDEMDGEWEPPMIDNPEYKGEWKPKQIKNPAYKGKWIHPEIENPEYTPDDELYSYESWGAIGFDLWQVKSGTIFDNIIITDSVEEAEAHAAETFDKLKTVEKEKKEKADEETRKAEEEARKKAEEEKEAKKDDDEEEKEEEEGHDEL
With B7, the binding entry is listed as “binds”.

B8: UNC-97 (protein, UniProt P50464 1-348)
chain: MDSDHNHINGDLAHGFENMVCVRCNDGFSMQDQMVNSSGQVWHSECFVCAQCFEPFPDGIYFEYEGRKYCEHDFHVLFSPCCGKCNEFIVGRVIKAMNASWHPGCFCCEICNKQLADVGFLRNAGRALCRECNEREKAAGHGRYVCHKCHAMIDDGQHIKFRGDSFHPYHFKCKRCNNELTTASREVNGELYCLRCHDTMGIPICGACHRPIEERVIAALGKHWHVEHFVCSVCEKPFLGHRHYERKGLPYCEQHFHKLFGNLCFKCGDPCCGEVFQALQKTWCVKCFSCSFCDKKLDQKTKFYEFDMKPTCKRCYDRFPTELKKRISESLKDRDVENQRRSMSPGPK
As to B8, the binding entry is “binds”.
